# Test results taken from the supplement of paper PMC3334620.
# Whole data set: some 33,000 sequences, median “E-score (-0.5 to 0.5)” near -0.015, cut for the highest 2% near 0.3. The list shows a part of the results.
# Target: T1, Abf1 (UniProt P14164)
# T1 sequence: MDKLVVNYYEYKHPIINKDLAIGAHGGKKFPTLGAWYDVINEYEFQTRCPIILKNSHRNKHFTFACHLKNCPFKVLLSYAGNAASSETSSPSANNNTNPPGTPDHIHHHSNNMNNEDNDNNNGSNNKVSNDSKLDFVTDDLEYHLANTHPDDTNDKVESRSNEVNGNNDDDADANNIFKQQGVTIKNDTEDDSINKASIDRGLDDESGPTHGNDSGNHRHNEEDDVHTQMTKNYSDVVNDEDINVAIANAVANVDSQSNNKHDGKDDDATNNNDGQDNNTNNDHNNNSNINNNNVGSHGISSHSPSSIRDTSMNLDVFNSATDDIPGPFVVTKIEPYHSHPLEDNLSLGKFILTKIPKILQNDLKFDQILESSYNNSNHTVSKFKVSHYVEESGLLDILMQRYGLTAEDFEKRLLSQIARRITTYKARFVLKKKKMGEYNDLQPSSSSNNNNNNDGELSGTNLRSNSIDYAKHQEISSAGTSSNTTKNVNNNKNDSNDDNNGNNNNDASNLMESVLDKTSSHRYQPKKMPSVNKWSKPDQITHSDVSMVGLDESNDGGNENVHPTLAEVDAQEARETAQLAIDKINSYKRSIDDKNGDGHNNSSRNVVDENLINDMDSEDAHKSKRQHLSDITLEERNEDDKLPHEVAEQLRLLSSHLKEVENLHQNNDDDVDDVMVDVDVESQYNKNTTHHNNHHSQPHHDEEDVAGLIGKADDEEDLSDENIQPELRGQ
# Test: PBM E-score (8-mer binding enrichment) (E-score (-0.5 to 0.5)); higher = stronger / more preferred TF binding
# Details: protein concentration: 200 nM; construct: GST-full length
# Summary of the method: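 Masliner-normalised scans of fluorescent anti-GST signal were the basis for scoring. That signal came from GST-tagged yeast transcription factors applied at about 100-200 nM to double-stranded universal all-10-mer Agilent arrays on fresh or once-stripped slides. Each ungapped eight-base word, pooled with its reverse complement, received an E-score from the Universal PBM Analysis Suite.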
row,Sequence,PBM E-score
1,CCTTATCC,-0.276
2,AACATAAT,0.0774
3,ATTATGGC,-0.0611
4,CAAAATGA,0.275
5,GTGGTATA,-0.0621
6,CGACCACA,-0.0906
7,GACGCGCC,-0.0135
8,ACTCGCGA,0.152
9,AGCAGCAG,-0.0397
10,GCCCAGGC,-0.235
11,ACTGCAAT,-0.101
12,ACCACTGG,-0.103
13,CGCCGAAG,-0.243
14,ACAACGAA,0.16
15,ACAATTCC,0.0825
16,GACAGTAA,0.0216
17,TGAATAAA,0.16
18,ATGAAGGG,-0.0285
19,CGTTGGGA,0.0305
20,ATCGTTTA,0.321
21,AGCTGGAG,-0.18
22,ATGCGCCC,-0.0262
23,CAAGCTAC,-0.128
24,AGGGCTTG,-0.00461
25,CGGGATAG,-0.00646

row,Sequence,PBM E-score
1,CTACGGAG,0.18
2,GCCAGACC,-0.158
3,ACGAGTCT,0.0644
4,CTGGCAGA,-0.057
5,CACCAATC,-0.0474
6,CACGTTAG,0.0535
7,CTACGTCA,0.146
8,ATCACGGA,0.246
9,ACAGCGGT,-0.124
10,GGCGTTAA,-0.0411
11,GTCAACTA,0.124
12,ACAGAGCC,-0.144
13,CCGTGTCG,0.0187
14,AATGTCGG,-0.0313
15,ACTCGATA,0.199
16,CATCGAAA,-0.091
17,TATCATCA,0.385
18,AATACGCG,0.06
19,CCCCTATA,-0.171
20,AATGACCC,-0.111
21,GAATCAGC,-0.149
22,CCAAAGCG,0.0362
23,ATATTGGG,-0.0849
24,AGTTAACT,-0.0757
25,CATGTCAA,0.105

row,Sequence,PBM E-score
1,CAGGCCAA,-0.222
2,ATCTCAAC,0.196
3,CCCTATTA,-0.101
4,ACAGGGTG,-0.156
5,AGAGCGCG,-0.135
6,GACACAAC,0.0974
7,CCACGGTA,0.216
8,ACGCGCTG,-0.133
9,AATGGGGA,-0.106
10,GTCACCAA,0.189
11,TGGGGGAA,-0.433
12,CGAGCCTA,-0.16
13,AAGAGTTA,-0.146
14,AATGGGCG,-0.233
15,AAACAGTA,0.0722
16,GCATATGA,0.028
17,CATACCGC,0.0472
18,CCTTTAGC,-0.0196
19,CTGCACGA,0.303
20,AAACGTTT,0.218
21,ACCGATCC,-0.0259
22,AGCTCGTG,0.101
23,GCCTCCAC,-0.207
24,ACCCGTCC,-0.084
25,GAGGAGAC,-0.062

# A second format for some results above:
row | Sequence | PBM E-score
5 | AGAGCGCG | -0.135
6 | GACACAAC | 0.0974
7 | CCACGGTA | 0.216
8 | ACGCGCTG | -0.133

# Next records follow.

row,Sequence,PBM E-score
1,CTGTGCCC,-0.0311
2,AGTGTTCA,-0.11
3,ACGTGCTG,0.00737
4,AAGCGCGC,0.0416
5,GAAACCAA,-0.0399
6,CGATACGC,0.121
7,CCTCGATC,-0.122
8,TCCTAGAA,-0.106
9,ATAGGGCC,-0.242
10,TCCGGGCA,-0.0646
11,CCGAGTTC,0.121
12,AGCCTGTC,-0.215
13,CAAAATGC,0.0932
14,AGTGCACA,-0.0288
15,AATATGGC,0.0026
16,CCATGAGA,-0.00214
17,GCTATGTA,-0.0658
18,AGGGTTAT,0.0238
19,ACATTGGG,-0.0776
20,ATCAGTGG,-0.0831
21,GTGGGATA,-0.0357
22,CTAACGCC,-0.163
23,ACCAGGCA,-0.115
24,ATTCTACA,0.0795
25,AGAGGGCC,-0.202

row,Sequence,PBM E-score
1,AAATTGGG,0.0133
2,TACTTAGA,-0.024
3,CCTTACAG,-0.161
4,CCGCAGTC,-0.165
5,AGCTCTCC,-0.317
6,TACAACCA,-0.0973
7,CTTTTATA,-0.0671
8,ACGAATCC,0.25
9,GTTGCGGA,-0.144
10,CAGTAACA,0.0584
11,CCAAGCCC,-0.19
12,TTGATCAA,0.131
13,ACGGACGA,0.263
14,TAACCTGA,0.0671
15,AGCATCTG,-0.0435
16,ATGTTTTA,-0.0105
17,AGAGAGCC,-0.00227
18,CCGATACA,-0.05
19,CCCTCTGC,-0.216
20,AATCGGTC,-0.0478
21,CACAGTAG,-0.00072
22,CCATCTTA,-0.093
23,CGAGGGAG,-0.117
24,ACTAGTTG,-0.251
25,GTACAGAC,-0.0239

row,Sequence,PBM E-score
1,ATGCTGCG,-0.13
2,CTCAAACC,-0.13
3,AATGGCGG,-0.202
4,GATAACGA,0.145
5,GACTCGCA,-0.087
6,AGTCTGCA,-0.201
7,AAGTCTGG,-0.199
8,ATCATATG,0.0678
9,CAGCAGCA,-0.152
10,CACAATGA,-0.0928
11,CAAAATTG,0.018
12,CCCTCTAG,-0.0251
13,ATGTAGAG,-0.0334
14,ATCCATCG,0.0517
15,GACTGCGC,-0.0512
16,AGTCGGGA,-0.122
17,AACCCGGC,0.0104
18,CGGATGAA,0.211
19,CTTTAAAC,0.0651
20,GCTCTTCA,-0.0495
21,CATACTCA,-0.0369
22,TAGGGGCA,-0.146
23,ATAAAACA,0.107
24,ACCTCGTA,0.182
25,CGCCACAC,-0.0181

# Fetched one by one from above:
row,Sequence,PBM E-score
21,GAATCAGC,-0.149
17,TGAATAAA,0.16
18,AATACGCG,0.06
24,ACTAGTTG,-0.251
16,ATGTTTTA,-0.0105

# The list continues:

row,Sequence,PBM E-score
1,CCATAGCA,-0.193
2,AAGACCTC,-0.346
3,TCAGCCGA,-0.0123
4,ACCCATAG,-0.337
5,CTCAAGGA,-0.0647
6,AAGCGCTG,-0.216
7,ACCCGTTA,0.108
8,AAATAAGA,0.0435
9,ATATAAGA,0.254
10,CCTCGCTA,-0.0888
11,CTGTTACA,0.0724
12,GCAGGACA,-0.00797
13,CTGTCGAA,-0.0836
14,CAAGGAAC,-0.125
15,AGGCCAAA,-0.1
16,CCGCTCGC,-0.0462
17,CAATGCTA,0.00982
18,CGTTTGCA,0.164
19,AGCTAACG,-0.0182
20,AAGATTCG,0.214
21,GCTTAAGA,0.0407
22,AAAGCAAG,-0.0749
